Measurements reported in PubChem BioAssay AID1508588 (Peter MacCallum Cancer Centre, 2020).
The whole screen tested about 18,000 reagents; below is a part drawn at random. 790 of them (4.4%) count as active. 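Calls rest on a combination of fold-change classes in drug and vehicle arms, not all shown here.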 Entries without a mark were called inactive. Reagents against one gene are numbered here.

Aim: 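Which gene losses make BRAF-mutant melanoma cells more responsive to vemurafenib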 (primary screen)
Cell system: human WM266.4 melanoma cells (BRAF V600 mutant)
Knock-down reagent: siRNA pool against human genes, 40 nM
Time to read-out: 96 h from transfection to read-out
Conditions: vemurafenib 300 nM (about IC25), added 48 h after transfection, for 48 h; comparison arm got DMSO vehicle only
Measurement: 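Cell gain (DAPI nuclei at end minus before drug, mean of two replicates) and medium lactate by absorbance per cell, both as ratio to non-targeting siRNA, also grouped into fold-change classes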
Direction: cell gain with vemurafenib: higher = more cell gain than with non-targeting siRNA; lactate per cell with vemurafenib: higher = more lactate made per cell
Rule for the call: 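Enhancement is called by pairing each knock-down's vehicle-arm and drug-arm fold-change classes for viability or glycolysis; which class combinations qualify is not given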
Meaning of the calls: active = enhances vemurafenib effect; inactive = no enhancement seen

no.	gene symbol	pool no.	cell gain with vemurafenib	lactate per cell with vemurafenib
1	RXFP2 (relaxin family peptide receptor 2)	1	0.12 (active)	0.86
2	FAM209B (family with sequence similarity 209 member B)	1	0.64	0.98
3	MKNK2 (MAPK interacting serine/threonine kinase 2)	1	0.56	0.8
4	ATG9A (autophagy related 9A)	1	0.3	1.65
5	PROSER2 (proline and serine rich 2)	1	0.61	0.67
6	DNAH5 (dynein axonemal heavy chain 5)	1	0.72	0.57
7	NBR1 (NBR1 autophagy cargo receptor)	1	0.24	1.36
8	DNPH1 (2'-deoxynucleoside 5'-phosphate N-hydrolase 1)	1	0.4	1.01
9	OSBPL7 (oxysterol binding protein like 7)	1	0.68	0.46
10	PRKAA2 (protein kinase AMP-activated catalytic subunit alpha 2)	1	0.57	0.9
11	PCDHB2 (protocadherin beta 2)	1	0.82	0.55
12	RINT1 (RAD50 interactor 1)	1	0.34	1.54
13	MED12L (mediator complex subunit 12L)	1	0.6	1.84
14	WDR19 (WD repeat domain 19)	1	0.55	1.47
15	PLPP7 (phospholipid phosphatase 7 (inactive))	1	1.21	0.64
16	TNFRSF17 (TNF receptor superfamily member 17)	1	0.09	1.27
17	DCAF8 (DDB1 and CUL4 associated factor 8)	1	0.72	0.83
18	TRIM45 (tripartite motif containing 45)	1	1.11	0.75
19	PLA2G12A (phospholipase A2 group XIIA)	1	0.69	0.6
20	RLN2 (relaxin 2)	1	0.19	2.03
21	SLC35A5	1	0.08	1.77
22	PPP1R36 (protein phosphatase 1 regulatory subunit 36)	1	0.43	0.82
23	EMC2 (ER membrane protein complex subunit 2)	1	0.62	0.58
24	GPRIN3 (GPRIN family member 3)	1	0.6	0.58
25	NLK (nemo like kinase)	1	0.03	0.81
26	ITM2C (integral membrane protein 2C)	1	0.21	0.98
27	PA2G4 (proliferation-associated 2G4)	1	0.39	0.85
28	STUB1 (STIP1 homology and U-box containing protein 1)	1	1.1	0.68
29	PPIAL4A (peptidylprolyl isomerase A like 4A)	1	1.11	1
30	NCOA2 (nuclear receptor coactivator 2)	1	0.8	0.6
31	PAOX (polyamine oxidase)	1	0.78	0.82
32	BAGE4 (BAGE family member 4)	1	0.4	1.94
33	KRTAP19-5 (keratin associated protein 19-5)	1	0.84	1.28
34	H2BC17 (H2B clustered histone 17)	1	-0.05	2.74
35	GALNT1 (polypeptide N-acetylgalactosaminyltransferase 1)	1	0.48	1.5
36	HAGHL (hydroxyacylglutathione hydrolase like)	1	0.94	0.58
37	HIC1 (HIC ZBTB transcriptional repressor 1)	1	0.52	1.57
38	FSIP2 (fibrous sheath interacting protein 2)	1	0.88	0.32
39	FSIP2 (fibrous sheath interacting protein 2)	2	0.09	1.67
40	POLDIP2 (DNA polymerase delta interacting protein 2)	1	0.72	0.92
41	GPRASP2 (G protein-coupled receptor associated sorting protein 2)	1	0.61	0.6
42	OR8H2 (olfactory receptor family 8 subfamily H member 2)	1	0.37	0.9
43	OR2A2 (olfactory receptor family 2 subfamily A member 2)	1	0.1	0.3
44	SLC5A4	1	0.54	0.76
45	CCDC13 (coiled-coil domain containing 13)	1	0.84	0.82
46	EMP3 (epithelial membrane protein 3 (MAM blood group))	1	0.37 (active)	0.3
47	PDE4A (phosphodiesterase 4A)	1	0.74	1.32
48	CST3 (cystatin C)	1	0.18	1.19
49	TMEM43 (transmembrane protein 43)	1	0.92	0.66
50	EXOSC7 (exosome component 7)	1	0.84	0.95
51	GPRC5D (G protein-coupled receptor class C group 5 member D)	1	0.56	1.15
52	SYPL2 (synaptophysin like 2)	1	0.86	1.49
53	JADE1 (jade family PHD finger 1)	1	1.07	0.98
54	GADD45G (growth arrest and DNA damage inducible gamma)	1	0.51	0.85
55	HNMT (histamine N-methyltransferase)	1	0.88	0.23
56	TMEM270 (transmembrane protein 270)	1	0.17	0.98
57	AOAH (acyloxyacyl hydrolase)	1	0.35	0.84
58	RAD23A (RAD23 nucleotide excision repair protein A)	1	0.33	1.09
59	PGAP2 (post-GPI attachment to proteins 2)	1	0.31	1.42
60	MYO5B (myosin VB)	1	0.87	0.99
61	WTAP (WT1 associated protein)	1	0.29	0.5
62	TUBGCP5 (tubulin gamma complex component 5)	1	0.9	0.58
63	EID2 (EP300 interacting inhibitor of differentiation 2)	1	0.96	0.89
64	SOCS1 (suppressor of cytokine signaling 1)	1	0.26	1.44
65	IFNE (interferon epsilon)	1	-0.03	3.11
66	SMOX (spermine oxidase)	1	0.62	0.68
67	NHLH1 (nescient helix-loop-helix 1)	1	0.16	0.24
68	TRIM64B (tripartite motif containing 64B)	1	0.7	0.91
69	BBS2 (Bardet-Biedl syndrome 2)	1	0.37	0.94
70	DTWD2 (DTW motif tRNA-uridine aminocarboxypropyltransferase 2)	1	0.89	0.7
71	SMCO4 (single-pass membrane protein with coiled-coil domains 4)	1	0.71	1.21
72	HS6ST1 (heparan sulfate 6-O-sulfotransferase 1)	1	0.49	1.92
73	SMYD2 (SET and MYND domain containing 2)	1	0.68	0.97
74	CDKN2D (cyclin dependent kinase inhibitor 2D)	1	0.86	1.28
75	OGFR (opioid growth factor receptor)	1	-0.2	1.61
76	CAST (calpastatin)	1	0.54	0.57
77	TLDC2 (TBC/LysM-associated domain containing 2)	1	0.85	1.04
78	CD209 (CD209 molecule)	1	0.65	0.66
79	JMY (junction mediating and regulatory protein, p53 cofactor)	1	1	0.57
80	KCNK15 (potassium two pore domain channel subfamily K member 15)	1	0.6	0.52
81	HKDC1 (hexokinase domain containing 1)	1	0.31	0.98
82	PARP4 (poly(ADP-ribose) polymerase family member 4)	1	0.8	0.86
83	POLR1B (RNA polymerase I subunit B)	1	0.3	0.82
84	PSD (pleckstrin and Sec7 domain containing)	1	0.77	1.08
85	CMPK1 (cytidine/uridine monophosphate kinase 1)	1	0.37	0.89
86	TDRP (testis development related protein)	1	0.58	1.67
87	FLNC (filamin C)	1	0.78	0.44
88	BRCA2 (BRCA2 DNA repair associated)	1	0.75	0.74
89	MAGEL2 (MAGE family member L2)	1	0.76	1.39
90	SERPIND1 (serpin family D member 1)	1	0.49	0.86
91	ODAPH (odontogenesis associated phosphoprotein)	1	0.88	1.02
92	ARG2 (arginase 2)	1	0.36	2.01
93	CARD19 (caspase recruitment domain family member 19)	1	0.28	1.27
94	VPS53 (VPS53 subunit of GARP complex)	1	0.63	0.9
95	NXF5 (nuclear RNA export factor 5)	1	0.43	1.12
96	NUFIP2 (nuclear FMR1 interacting protein 2)	1	0.44	0.78
97	TTPA (alpha tocopherol transfer protein)	1	0.74	0.74
98	OR52H1 (olfactory receptor family 52 subfamily H member 1)	1	0.55	1.08
99	OR2T5 (olfactory receptor family 2 subfamily T member 5)	1	0.43	0.24
100	CNPY3 (canopy FGF signaling regulator 3)	1	0.47	0.74
101	MED8 (mediator complex subunit 8)	1	0.34	0.74
102	PDGFRA (platelet derived growth factor receptor alpha)	1	0.43	0.76
103	TM4SF18 (transmembrane 4 L six family member 18)	1	0.19	0.84
104	FAM193A (family with sequence similarity 193 member A)	1	-0.18	0.64
105	ZFP69 (ZFP69 zinc finger protein)	1	0.77	0.82
106	CDH3 (cadherin 3)	1	0.91	1.18
107	BCL2A1 (BCL2 related protein A1)	1	0.83	0.83

17 successive entries from above:
no.	gene symbol	pool no.	cell gain with vemurafenib	lactate per cell with vemurafenib
76	CAST (calpastatin)	1	0.54	0.57
77	TLDC2 (TBC/LysM-associated domain containing 2)	1	0.85	1.04
78	CD209 (CD209 molecule)	1	0.65	0.66
79	JMY (junction mediating and regulatory protein, p53 cofactor)	1	1	0.57
80	KCNK15 (potassium two pore domain channel subfamily K member 15)	1	0.6	0.52
81	HKDC1 (hexokinase domain containing 1)	1	0.31	0.98
82	PARP4 (poly(ADP-ribose) polymerase family member 4)	1	0.8	0.86
83	POLR1B (RNA polymerase I subunit B)	1	0.3	0.82
84	PSD (pleckstrin and Sec7 domain containing)	1	0.77	1.08
85	CMPK1 (cytidine/uridine monophosphate kinase 1)	1	0.37	0.89
86	TDRP (testis development related protein)	1	0.58	1.67
87	FLNC (filamin C)	1	0.78	0.44
88	BRCA2 (BRCA2 DNA repair associated)	1	0.75	0.74
89	MAGEL2 (MAGE family member L2)	1	0.76	1.39
90	SERPIND1 (serpin family D member 1)	1	0.49	0.86
91	ODAPH (odontogenesis associated phosphoprotein)	1	0.88	1.02
92	ARG2 (arginase 2)	1	0.36	2.01
